Results from PubChem BioAssay AID256 (DTP/NCI, 2004).
The list shows only some results of the screen, not a fair sample: it is rich in T/C values a quarter to a half above the control, in often repeated tests (any T/C) and in doses without a T/C. Other doses and runs of a compound stand elsewhere. T/C is the treated group as % of the vehicle group. Some entries give survivors of the animals treated and no T/C: the source files T/C as zero there, which appears to mark a toxic dose or a test without result, not a measured value. Some survivor counts are full or nearly so, which does not show that the dose was tolerated: the source hardly ever lists a survival T/C far under the control, and the zero likely stands for such cases as well. Counts of survivors are from the toxicity check (mostly the fifth day) where no day follows; animals may have died later. Schedules are NCI's codes, taken here to give the interval after Q, in days (D) or hours (H), and the number of doses after X. For survival time, the PubChem record calls one and a half times the control and up active, and a quarter to a half above the control has no call in these data; cut-offs in other NCI protocols can differ. Some T/C values are followed by the survivors on the day toxicity was checked, most often the fifth; where none is given, no animal had died by that day.

Test system: CD2F1 mice, L1210 leukemia ip, survival T/C
Test: NCI In Vivo Anticancer Drug Screen. Data for tumor model L1210 Leukemia (intraperitoneal) in CD2F1 (CDF1) mice
Settings: T/C endpoint: mean survival time, higher T/C = longer survival
In short: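 Antitumor effect is scored in animals hosting a serially transplanted tumor. Values compare compound-dosed animals against vehicle-only controls as a simple quotient.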

[1] = dose: 400.0 mg/kg/injection, schedule: Q04DX003 (ip), vehicle: saline with Tween-80
[2] = dose: 6.25 mg/kg/injection, schedule: Q01DX009 (ip), vehicle: saline with Tween-80
[3] = dose: 12.5 mg/kg/injection, schedule: Q01DX009 (ip), vehicle: saline with Tween-80
[4] = dose: 25.0 mg/kg/injection, schedule: Q01DX009 (ip), vehicle: saline with Tween-80
[5] = dose: 50.0 mg/kg/injection, schedule: Q01DX009 (ip), vehicle: saline with Tween-80
[6] = dose: 100.0 mg/kg/injection, schedule: Q01DX009 (ip), vehicle: saline with Tween-80
[7] = dose: 100.0 mg/kg/injection, schedule: Q04DX003 (ip), vehicle: saline with Tween-80
[8] = dose: 200.0 mg/kg/injection, schedule: Q04DX003 (ip), vehicle: saline with Tween-80
[9] = dose: 400.0 mg/kg/injection, schedule: Q04DX002 (ip), vehicle: saline with Tween-80

With `NC(=O)c1ncn(C2CCCC2)c1N` the survivor count (dose: 100.0 mg/kg/injection, schedule: Q01DX001 (ip), vehicle: other) was 0 of 6, the survivor count (dose: 200.0 mg/kg/injection, schedule: Q01DX001 (ip), vehicle: other) was 0 of 6 and the survivor count (dose: 400.0 mg/kg/injection, schedule: Q01DX001 (ip), vehicle: other) was 0 of 6.
For `O=C1OC(Cc2ccccc2)(c2ccccc2)c2ccccc21` (stereo not drawn), the survivor count [1] was 6 of 6.
With `COc1cc(C=Nc2ccc(-c3nc(C)sc3C)cc2)ccc1N(CCCl)CCCl` the survivor count (dose: 100.0 mg/kg/injection, schedule: Q01DX001 (ip), vehicle: carboxymethylcellulose (CMC)) was 2 of 4.
In the case of `N#C/C=C/C#N`, the survivor count (dose: 3.13 mg/kg/injection, schedule: Q01DX009 (ip), vehicle: saline with Tween-80) is reported as 0 of 6, the survivor count [2] is reported as 0 of 6 and the survivor count [3] is reported as 0 of 6. The survivor count [4] was 3 of 6, the survivor count [5] was 1 of 6 and the survivor count [6] was 0 of 6.
For `CCCCN(CCCC)C(Cl)=Nc1ccccc1`, the survivor count (dose: 200.0 mg/kg/injection, schedule: Q01DX009 (ip), vehicle: Klucel (hydroxypropylcellulose) (HPC)) was 3 of 6.
With `NC(CS(=O)c1ccc(Cl)cc1)C(=O)O` (stereo not drawn) the survivor count [5] was 3 of 6, the survivor count [6] was 3 of 6 and the survivor count (dose: 200.0 mg/kg/injection, schedule: Q01DX009 (ip), vehicle: saline with Tween-80) was 0 of 6.
For `CN(C1=CC(=O)C(N(C)C2CCCCC2)=CC1=O)C1CCCCC1`, the survivor count (dose: 75.0 mg/kg/injection, schedule: Q01DX001 (ip), vehicle: saline) was 0 of 6, the survivor count (dose: 150.0 mg/kg/injection, schedule: Q01DX001 (ip), vehicle: saline) was 0 of 6 and the survivor count (dose: 300.0 mg/kg/injection, schedule: Q01DX001 (ip), vehicle: saline) was 0 of 6.
In the case of `CCCCOC(=S)SCCSC(=S)OCCCC`, the survivor count (dose: 400.0 mg/kg/injection, schedule: Q01DX009 (ip), vehicle: saline with Tween-80) is reported as 4 of 6.
With `CCN(CC)Cc1cc(Nc2cc(C)nc(Nc3ccc(Cl)c(Cl)c3)n2)ccc1OC` the survivor count [7] was 6 of 6, the survivor count [8] was 0 of 6 and the survivor count [1] was 1 of 6.
`Cc1ccc(OC(=O)Nc2cccc3ccccc23)cc1C` was tested, and the survivor count [9] was 3 of 3.
For `CCCCCCC(=O)CCCCCC/C=C/CC(O)C(O)C(N)(CO)C(=O)O` (stereo not drawn), the survivor count (dose: 25.0 mg/kg/injection, schedule: Q04DX002 (ip), vehicle: saline with Tween-80) was 1 of 3 and the survivor count (dose: 50.0 mg/kg/injection, schedule: Q04DX002 (ip), vehicle: saline with Tween-80) was 0 of 3.
For `OC1=C2CCCCCC2=[N+]2CCCCC2C1` (stereo not drawn), the survivor count [1] was 3 of 6.
In the case of `CCOC(=O)C(=O)C1CCNC1=O` (stereo not drawn), the survivor count [7] is reported as 6 of 6, the survivor count [8] is reported as 0 of 6 and the survivor count [1] is reported as 0 of 6.
In the case of `O=C(CCN1CC1)NCCCCCCCCNC(=O)CCN1CC1`, the survivor count (dose: 75.0 mg/kg/injection, schedule: Q01DX001 (ip), vehicle: carboxymethylcellulose (CMC)) is reported as 1 of 6.
With `COCC(O)CN1CCN(c2cccc3c2CCCC3)CC1` (stereo not drawn) the survivor count (dose: 400.0 mg/kg/injection, schedule: Q01DX001 (ip), vehicle: saline with Tween-80) was 0 of 6.
With `CCN(C)N=Nc1ccc(C(N)=O)cc1` the T/C (dose: 37.5 mg/kg/injection, schedule: Q01DX009 (ip), vehicle: Klucel (hydroxypropylcellulose) (HPC)) was 134 % of control, the T/C (dose: 50.0 mg/kg/injection, schedule: Q01DX009 (oral), vehicle: saline with Tween-80) was 126 % of control and the T/C (dose: 150.0 mg/kg/injection, schedule: Q01DX009 (ip), vehicle: Klucel (hydroxypropylcellulose) (HPC)) was 146 % of control. The survivor count (dose: 300.0 mg/kg/injection, schedule: Q01DX009 (ip), vehicle: Klucel (hydroxypropylcellulose) (HPC)) was 4 of 6, the survivor count (dose: 400.0 mg/kg/injection, schedule: Q01DX009 (oral), vehicle: saline with Tween-80) was 4 of 6 and the survivor count (dose: 800.0 mg/kg/injection, schedule: Q01DX009 (oral), vehicle: saline with Tween-80) was 0 of 6.
`CN(Cc1cnc2nc(N)nc(N)c2n1)c1ccc(C(=O)NC(CCC(=O)OC(C)(C)C)C(=O)OC(C)(C)C)cc1` (stereo not drawn) was tested, and the T/C [2] was 134 % of control, the T/C (dose: 9.0 mg/kg/injection, schedule: Q01DX009 (ip), vehicle: saline with Tween-80) was 126 % of control and the T/C [3] was 149 % of control. For the same molecule, the T/C (dose: 18.0 mg/kg/injection, schedule: Q01DX009 (ip), vehicle: saline with Tween-80) was 143 % of control, the T/C [4] was 146 % of control and the T/C (dose: 25.0 mg/kg/injection, schedule: Q04DX003 (ip), vehicle: Klucel (hydroxypropylcellulose) (HPC)) was 126 % of control. The T/C (dose: 50.0 mg/kg/injection, schedule: Q04DX003 (ip), vehicle: Klucel (hydroxypropylcellulose) (HPC)) was 131 % of control, the T/C (dose: 100.0 mg/kg/injection, schedule: Q04DX003 (ip), vehicle: Klucel (hydroxypropylcellulose) (HPC)) was 131 % of control [4 of 6 alive] and the survivor count (dose: 200.0 mg/kg/injection, schedule: Q04DX003 (ip), vehicle: Klucel (hydroxypropylcellulose) (HPC)) was 4 of 6.
With `CSC1=CC(=O)C=C(C)C1=O` the survivor count (dose: 75.0 mg/kg/injection, schedule: Q01DX001 (ip), vehicle: other) was 1 of 6, the survivor count (dose: 150.0 mg/kg/injection, schedule: Q01DX001 (ip), vehicle: other) was 0 of 6 and the survivor count (dose: 300.0 mg/kg/injection, schedule: Q01DX001 (ip), vehicle: other) was 0 of 6.
`Cc1c2ccccc2c(C)c2c1ccc1ccccc12` was tested, and the T/C (dose: 9.37 mg/kg/injection, schedule: Q04DX003 (ip), vehicle: acetone) was 135 % of control, the T/C (dose: 18.75 mg/kg/injection, schedule: Q04DX003 (ip), vehicle: acetone) was 146 % of control and the T/C (dose: 37.5 mg/kg/injection, schedule: Q04DX003 (ip), vehicle: acetone) was 136 % of control. For the same molecule, the survivor count [5] was 6 of 6, the T/C (dose: 55.0 mg/kg/injection, schedule: Q04DX003 (ip), vehicle: Klucel (hydroxypropylcellulose) (HPC)) was 135 % of control and the T/C (dose: 85.0 mg/kg/injection, schedule: Q04DX003 (ip), vehicle: Klucel (hydroxypropylcellulose) (HPC)) was 141 % of control. The survivor count [6] was 6 of 6, the survivor count [8] was 6 of 6 and the survivor count [1] was 6 of 6.
For `CCCCCCCCCCCCCCOS(=O)(=O)O`, the survivor count (dose: 150.0 mg/kg/injection, schedule: Q01DX009 (ip), vehicle: saline) was 0 of 6.
With `[CH3][Pb]([CH3])([CH3])[Cl]` the survivor count (dose: 6.25 mg/kg/injection, schedule: Q01DX009 (ip), vehicle: saline) was 3 of 6, the survivor count (dose: 12.5 mg/kg/injection, schedule: Q01DX009 (ip), vehicle: saline) was 0 of 6 and the survivor count (dose: 25.0 mg/kg/injection, schedule: Q01DX009 (ip), vehicle: saline) was 0 of 6. For the same molecule, the survivor count (dose: 25.0 mg/kg/injection, schedule: Q04DX002 (ip), vehicle: saline) was 0 of 3, the survivor count (dose: 50.0 mg/kg/injection, schedule: Q01DX009 (ip), vehicle: saline) was 0 of 6 and the survivor count (dose: 50.0 mg/kg/injection, schedule: Q04DX002 (ip), vehicle: saline) was 0 of 3. The survivor count (dose: 100.0 mg/kg/injection, schedule: Q04DX002 (ip), vehicle: saline with Tween-80) was 0 of 3, the survivor count (dose: 200.0 mg/kg/injection, schedule: Q04DX002 (ip), vehicle: saline with Tween-80) was 0 of 3 and the survivor count [9] was 0 of 3.
